Numbering of substitutions follows the chain as printed. No constants are given. Whether binding was seen depends on the method and setting. For some assays here: Binding calls can cover weak binding; strength is not graded here. For some assays here: Where a sequence is shown, tags or fusion partners need not be part of it.
Assays:
[1] = target: T1, LexA-CC (coiled-coil domain of TRPM7, residues 1120-1288, fused to LexA) (not stated (human or mouse cDNA cloned)) (UniProt Q923J1); experiment: two-hybrid; directed Y2H beta galactosidase assay; TRPM7 COOH-terminal fragments fused to LexA as bait, Gal4-fused hepatocystin 346-528 as prey
T1 sequence: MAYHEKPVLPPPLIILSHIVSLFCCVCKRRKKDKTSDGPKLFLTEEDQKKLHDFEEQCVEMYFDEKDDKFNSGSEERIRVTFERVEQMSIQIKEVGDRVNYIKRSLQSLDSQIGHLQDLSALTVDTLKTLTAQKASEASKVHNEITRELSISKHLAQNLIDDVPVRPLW

[2] = target: T2, LexA-CTERM (COOH-terminus of TRPM7, residues 1120-1862, fused to LexA) (not stated (human or mouse cDNA cloned)) (UniProt Q923J1); experiment: as above
T2 sequence: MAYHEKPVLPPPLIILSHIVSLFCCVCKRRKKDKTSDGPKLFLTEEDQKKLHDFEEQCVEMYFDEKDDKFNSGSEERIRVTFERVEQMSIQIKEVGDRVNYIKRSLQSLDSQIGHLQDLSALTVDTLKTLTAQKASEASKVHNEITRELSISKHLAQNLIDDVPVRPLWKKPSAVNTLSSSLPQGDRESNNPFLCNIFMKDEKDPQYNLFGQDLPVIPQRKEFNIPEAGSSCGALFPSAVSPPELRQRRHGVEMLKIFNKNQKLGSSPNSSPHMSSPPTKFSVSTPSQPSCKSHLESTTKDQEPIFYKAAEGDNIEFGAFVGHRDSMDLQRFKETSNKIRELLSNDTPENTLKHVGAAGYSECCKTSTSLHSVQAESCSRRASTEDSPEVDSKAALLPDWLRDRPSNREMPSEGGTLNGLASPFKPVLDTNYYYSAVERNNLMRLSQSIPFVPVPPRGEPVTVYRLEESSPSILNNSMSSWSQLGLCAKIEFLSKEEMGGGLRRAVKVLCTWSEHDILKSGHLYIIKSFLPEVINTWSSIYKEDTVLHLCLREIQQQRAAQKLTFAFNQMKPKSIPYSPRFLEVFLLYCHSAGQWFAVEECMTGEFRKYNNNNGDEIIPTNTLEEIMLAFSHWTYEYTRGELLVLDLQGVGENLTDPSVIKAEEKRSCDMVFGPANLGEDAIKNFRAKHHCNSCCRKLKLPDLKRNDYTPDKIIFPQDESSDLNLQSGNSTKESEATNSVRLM

[3] = target: T3, LexA-CTERM (K1646R), kinase-inactive mutant of the TRPM7 COOH-terminus (not stated (human or mouse cDNA cloned)) (UniProt Q923J1); experiment: as above
T3 sequence: T2 sequence with K527R

[4] = target: T4, LexA-KIN (kinase domain of TRPM7, residues 1597-1862, fused to LexA) (not stated (human or mouse cDNA cloned)) (UniProt Q923J1); experiment: as above
T4 sequence: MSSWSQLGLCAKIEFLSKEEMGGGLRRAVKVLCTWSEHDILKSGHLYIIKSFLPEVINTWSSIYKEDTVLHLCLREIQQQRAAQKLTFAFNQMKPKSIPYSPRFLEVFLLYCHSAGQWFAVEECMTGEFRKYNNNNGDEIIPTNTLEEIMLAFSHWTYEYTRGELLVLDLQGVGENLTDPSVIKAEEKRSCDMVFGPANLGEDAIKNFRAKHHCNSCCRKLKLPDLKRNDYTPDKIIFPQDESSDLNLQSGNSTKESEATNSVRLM

[5] = target: T2, LexA-CTERM (COOH-terminus of TRPM7, residues 1120-1862, fused to LexA) (not stated (human or mouse cDNA cloned)); experiment: two-hybrid; screen of a rat brain prey library (pACT2 AD) with LexA-CTERM as bait; growth on selective media and beta galactosidase assay, then sequencing

Gal4 fused residues 346-528 of hepatocystin (prey) (rat (clone from a rat brain library)) (domain or fragment)
binding [1]: no binding | binding [2]: binds | binding [3]: binds | binding [4]: no binding | binding [5]: binds

Source: PMC4680877
